Data from PubChem BioAssay AID248 (DTP/NCI, 2004).
The list is a part of this screen's results and no random one: it is rich in T/C values a quarter to a half above the control, in often repeated tests (any T/C) and in doses without a T/C. Other doses and runs of a compound stand elsewhere. T/C gives the treated animals as a percentage of the vehicle group. Some entries give survivors of the animals treated and no T/C: the source holds a T/C of zero for them, seemingly a mark for toxic or unscored doses. Some doses without a T/C left all or most animals alive at the check, yet need not have been tolerated: survival well below the control is almost never listed, so the zero probably covers shortened survival too. Counts of survivors are from the toxicity check (mostly the fifth day) where no day follows; animals may have died later. Schedules are NCI's codes, taken here to give the interval after Q, in days (D) or hours (H), and the number of doses after X. Where survival is the endpoint, the PubChem record calls one and a half times the control and up active, and a quarter to a half above the control has no call in these data; cut-offs in other NCI protocols can differ. Some T/C values carry the count of animals alive at the toxicity check (mostly the fifth day); without a count, all were alive then. Some doses were run more than once; the values are given in rising order.

Test system: L1210 leukemia ip in BDF1 mice, survival T/C
Experiment: NCI In Vivo Anticancer Drug Screen. Data for tumor model L1210 Leukemia (intraperitoneal) in B6D2F1 (BDF1) mice
Conditions: higher T/C = longer survival

Which results are given for `COc1cc2cc3c4cc(OC)c(OC)cc4cc[n+]3c(C)c2cc1OC` (tested in a mixture with another compound)?
T/C (T/C endpoint: mean survival time, dose: 8.0 mg/kg/injection, schedule: Q03HX008 (ip), vehicle: saline): 125 % of control [9 of 10 alive]; T/C (T/C endpoint: mean survival time, dose: 8.0 mg/kg/injection, schedule: Q03HX024 (ip), vehicle: saline): 125 % of control; T/C (T/C endpoint: mean survival time, dose: 16.0 mg/kg/injection, schedule: Q01DX009 (ip), vehicle: other): 127 % of control; T/C (T/C endpoint: mean survival time, dose: 16.0 mg/kg/injection, schedule: Q01DX009 (ip), vehicle: saline): 128 % of control; T/C (T/C endpoint: mean survival time, dose: 16.0 mg/kg/injection, schedule: Q03HX008 (ip), vehicle: saline): 128 % of control; survivor count (T/C endpoint: mean survival time, dose: 20.0 mg/kg/injection, schedule: Q01DX009 (ip), vehicle: saline): 3 of 6; T/C (T/C endpoint: mean survival time, dose: 25.0 mg/kg/injection, schedule: Q01DX009 (ip), vehicle: saline with Tween-80): 125 % of control; T/C (T/C endpoint: mean survival time, dose: 32.0 mg/kg/injection, schedule: Q01DX009 (ip), vehicle: clinical formulation): 142 % of control; T/C (T/C endpoint: mean survival time, dose: 32.0 mg/kg/injection, schedule: Q01DX009 (ip), vehicle: saline): 132 % of control; T/C (T/C endpoint: mean survival time, dose: 32.0 mg/kg/injection, schedule: Q03HX008 (ip), vehicle: saline): 128 % of control; T/C (T/C endpoint: mean survival time, dose: 32.0 mg/kg/injection, schedule: Q03HX016 (ip), vehicle: saline): 131 % of control; T/C (T/C endpoint: mean survival time, dose: 32.0 mg/kg/injection, schedule: Q03HX024 (ip), vehicle: saline): 126 % of control; T/C (T/C endpoint: mean survival time, dose: 50.0 mg/kg/injection, schedule: Q01DX009 (ip), vehicle: saline with Tween-80): 127 % of control; T/C (T/C endpoint: mean survival time, dose: 64.0 mg/kg/injection, schedule: Q01DX009 (ip), vehicle: Klucel (hydroxypropylcellulose) (HPC)): 130 % of control; T/C (T/C endpoint: mean survival time, dose: 64.0 mg/kg/injection, schedule: Q01DX009 (ip), vehicle: other): 136 % of control; T/C (T/C endpoint: mean survival time, dose: 64.0 mg/kg/injection, schedule: Q01DX009 (ip), vehicle: saline): 134 % of control [8 of 10 alive]; T/C (T/C endpoint: mean survival time, dose: 64.0 mg/kg/injection, schedule: Q03HX008 (ip), vehicle: saline): 137 % of control [8 of 10 alive]; T/C (T/C endpoint: mean survival time, dose: 64.0 mg/kg/injection, schedule: Q04DX003 (ip), vehicle: saline): 125 % of control; T/C (T/C endpoint: mean survival time, dose: 80.0 mg/kg/injection, schedule: Q01DX009 (ip), vehicle: saline): 126 % of control [5 of 6 alive]; T/C (T/C endpoint: mean survival time, dose: 100.0 mg/kg/injection, schedule: Q04DX002 (ip), vehicle: saline): 126 % of control; T/C (T/C endpoint: mean survival time, dose: 100.0 mg/kg/injection, schedule: Q04DX003 (ip), vehicle: saline with Tween-80): 132 % of control; T/C (T/C endpoint: mean survival time, dose: 128.0 mg/kg/injection, schedule: Q01DX001 (ip), vehicle: saline): 133 % of control [8 of 10 alive]; survivor count (T/C endpoint: mean survival time, dose: 128.0 mg/kg/injection, schedule: Q01DX009 (ip), vehicle: clinical formulation): 8 of 10; T/C (T/C endpoint: mean survival time, dose: 128.0 mg/kg/injection, schedule: Q01DX009 (ip), vehicle: other): 142 % of control; T/C (T/C endpoint: mean survival time, dose: 128.0 mg/kg/injection, schedule: Q04DX003 (ip), vehicle: saline): 126 % of control [9 of 10 alive]; T/C (T/C endpoint: mean survival time, dose: 160.0 mg/kg/injection, schedule: Q01DX009 (ip), vehicle: saline): 125 and 136 % of control [5 of 6 alive]; survivor count (T/C endpoint: mean survival time, dose: 200.0 mg/kg/injection, schedule: Q01DX009 (ip), vehicle: saline with Tween-80): 2 of 6; T/C (T/C endpoint: mean survival time, dose: 200.0 mg/kg/injection, schedule: Q04DX003 (ip), vehicle: saline with Tween-80): 131 % of control; T/C (T/C endpoint: mean survival time, dose: 256.0 mg/kg/injection, schedule: Q01DX001 (ip), vehicle: saline): 140 % of control [8 of 10 alive]; survivor count (T/C endpoint: mean survival time, dose: 256.0 mg/kg/injection, schedule: Q01DX009 (ip), vehicle: Klucel (hydroxypropylcellulose) (HPC)): 1 of 10; survivor count (T/C endpoint: mean survival time, dose: 256.0 mg/kg/injection, schedule: Q01DX009 (ip), vehicle: clinical formulation): 1 of 10; survivor count (T/C endpoint: mean survival time, dose: 256.0 mg/kg/injection, schedule: Q01DX009 (ip), vehicle: other): 1 of 10; T/C (T/C endpoint: mean survival time, dose: 256.0 mg/kg/injection, schedule: Q08DX002 (ip), vehicle: saline): 134 % of control [8 of 10 alive]; survivor count (T/C endpoint: mean survival time, dose: 400.0 mg/kg/injection, schedule: Q01DX009 (ip), vehicle: saline with Tween-80): 0 of 6; T/C (T/C endpoint: mean survival time, dose: 400.0 mg/kg/injection, schedule: Q04DX002 (ip), vehicle: saline): 126 % of control; survivor count (T/C endpoint: mean survival time, dose: 400.0 mg/kg/injection, schedule: Q04DX003 (ip), vehicle: saline with Tween-80): 3 of 6; survivor count (T/C endpoint: mean survival time, dose: 512.0 mg/kg/injection, schedule: Q04DX003 (ip), vehicle: saline): 9 of 10; survivor count (T/C endpoint: mean survival time, dose: 800.0 mg/kg/injection, schedule: Q01DX009 (ip), vehicle: saline with Tween-80): 0 of 6; survivor count (T/C endpoint: mean survival time, dose: 800.0 mg/kg/injection, schedule: Q04DX003 (ip), vehicle: saline with Tween-80): 0 of 6; T/C (T/C endpoint: median survival time, dose: 8.0 mg/kg/injection, schedule: Q03HX024 (ip), vehicle: other): 131 % of control; T/C (T/C endpoint: median survival time, dose: 16.0 mg/kg/injection, schedule: Q03HX016 (ip), vehicle: other): 125 % of control; T/C (T/C endpoint: median survival time, dose: 32.0 mg/kg/injection, schedule: Q01DX009 (ip), vehicle: clinical formulation): 127 % of control; T/C (T/C endpoint: median survival time, dose: 32.0 mg/kg/injection, schedule: Q01DX009 (ip), vehicle: other): 136 % of control; T/C (T/C endpoint: median survival time, dose: 32.0 mg/kg/injection, schedule: Q03HX008 (ip), vehicle: other): 130 % of control [9 of 10 alive]; T/C (T/C endpoint: median survival time, dose: 32.0 mg/kg/injection, schedule: Q03HX016 (ip), vehicle: other): 135 % of control; T/C (T/C endpoint: median survival time, dose: 32.0 mg/kg/injection, schedule: Q03HX024 (ip), vehicle: other): 147 % of control; T/C (T/C endpoint: median survival time, dose: 64.0 mg/kg/injection, schedule: Q01DX009 (ip), vehicle: Klucel (hydroxypropylcellulose) (HPC)): 127 % of control; T/C (T/C endpoint: median survival time, dose: 64.0 mg/kg/injection, schedule: Q01DX009 (ip), vehicle: clinical formulation): 147 % of control; T/C (T/C endpoint: median survival time, dose: 64.0 mg/kg/injection, schedule: Q01DX009 (ip), vehicle: other): 130 % of control; T/C (T/C endpoint: median survival time, dose: 64.0 mg/kg/injection, schedule: Q01DX009 (ip), vehicle: water): 127 % of control; survivor count (T/C endpoint: median survival time, dose: 64.0 mg/kg/injection, schedule: Q03HX008 (ip), vehicle: other): 3 of 10; survivor count (T/C endpoint: median survival time, dose: 64.0 mg/kg/injection, schedule: Q03HX016 (ip), vehicle: other): 5 of 10; survivor count (T/C endpoint: median survival time, dose: 64.0 mg/kg/injection, schedule: Q03HX024 (ip), vehicle: other): 6 of 10; T/C (T/C endpoint: median survival time, dose: 64.0 mg/kg/injection, schedule: Q04DX003 (ip), vehicle: other): 127 % of control; survivor count (T/C endpoint: median survival time, dose: 128.0 mg/kg/injection, schedule: Q01DX009 (ip), vehicle: Klucel (hydroxypropylcellulose) (HPC)): 6 of 10; survivor count (T/C endpoint: median survival time, dose: 128.0 mg/kg/injection, schedule: Q01DX009 (ip), vehicle: clinical formulation): 0 of 10; survivor count (T/C endpoint: median survival time, dose: 128.0 mg/kg/injection, schedule: Q01DX009 (ip), vehicle: other): 9 of 10; survivor count (T/C endpoint: median survival time, dose: 128.0 mg/kg/injection, schedule: Q03HX008 (ip), vehicle: other): 0 of 10; T/C (T/C endpoint: median survival time, dose: 128.0 mg/kg/injection, schedule: Q04DX003 (ip), vehicle: other): 131 % of control; T/C (T/C endpoint: median survival time, dose: 128.0 mg/kg/injection, schedule: Q08DX002 (ip), vehicle: other): 133 % of control; T/C (T/C endpoint: median survival time, dose: 256.0 mg/kg/injection, schedule: Q01DX001 (ip), vehicle: other): 137 % of control; survivor count (T/C endpoint: median survival time, dose: 256.0 mg/kg/injection, schedule: Q01DX009 (ip), vehicle: Klucel (hydroxypropylcellulose) (HPC)): 0 of 10; survivor count (T/C endpoint: median survival time, dose: 256.0 mg/kg/injection, schedule: Q01DX009 (ip), vehicle: clinical formulation): 0 of 10; survivor count (T/C endpoint: median survival time, dose: 256.0 mg/kg/injection, schedule: Q01DX009 (ip), vehicle: other): 0 of 10; survivor count (T/C endpoint: median survival time, dose: 256.0 mg/kg/injection, schedule: Q01DX009 (ip), vehicle: water): 0 of 10; T/C (T/C endpoint: median survival time, dose: 256.0 mg/kg/injection, schedule: Q04DX003 (ip), vehicle: other): 145 % of control [9 of 10 alive]; T/C (T/C endpoint: median survival time, dose: 256.0 mg/kg/injection, schedule: Q08DX002 (ip), vehicle: other): 147 % of control [9 of 10 alive]; survivor count (T/C endpoint: median survival time, dose: 512.0 mg/kg/injection, schedule: Q01DX001 (ip), vehicle: other): 0 of 10; survivor count (T/C endpoint: median survival time, dose: 512.0 mg/kg/injection, schedule: Q04DX003 (ip), vehicle: other): 0 of 10; survivor count (T/C endpoint: median survival time, dose: 1024.0 mg/kg/injection, schedule: Q01DX001 (ip), vehicle: other): 1 of 10; survivor count (T/C endpoint: median survival time, dose: 1024.0 mg/kg/injection, schedule: Q01DX001 (sc), vehicle: other): 3 of 10
